PubChem BioAssay AID504784, Drosophila RNAi Screening Center, 2011
The deposit covers about 17,000 reagents; this is an unselected part of those with a known target gene and a result. 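Each column is one replicate's B-score; the combined score over replicates was not deposited, so single values may mislead.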 A plus sign joins genes that one reagent is predicted to hit. Further read-outs or replicates are left out here. Reagent sequences are not shown.

Purpose: 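Genome-wide knock-down for genes giving too much or too little stored lipid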 (primary screen)
Cells: Drosophila Kc167 embryonic cells
Reagent: long dsRNA against Drosophila genes, about 250 ng dsRNA per well
Duration: 4 days
Challenge: cells fed 400 µM oleic acid bound to BSA
Read-out: 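Microscope images give a droplet-to-nucleus area ratio, taken as log and converted to a screen-wide B-score; higher values mean greater lipid storage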
Direction: droplet/nuclear area B-score: higher = more stored lipid (overstorage)

| target gene | DRSC id | droplet/nuclear area B-score, replicate 1 |
| --- | --- | --- |
| Sec61gamma (Sec61 gamma subunit) | DRSC19570 | 0.0782 |
| CG5746 | DRSC15868 | 0.817 |
| CG17163 | DRSC20901 | -0.292 |
| Cad74A (Cadherin 74A) | DRSC10636 | 1.04 |
| Pdfr (Pigment-dispersing factor receptor) | DRSC18614 | 2.04 |
| CG12419 (retired record) | DRSC14513 | -2.79 |
| Ca-alpha1D (Ca[2+]-channel protein alpha[[1]] subunit D) | DRSC03284 | -2.26 |
| BomS1 (Bomanin Short 1) | DRSC22678 | 1.47 |
| Hacd1 (3-hydroxyacyl-CoA dehydratase 1) | DRSC02988 | -0.00863 |
| laf (labial associated factor) | DRSC12246 | -0.822 |
| CG30432 | DRSC04833 | 1.9 |
| RpS17 (Ribosomal protein S17) | DRSC11271 | 1.42 |
| CG5516 | DRSC15826 | 0.00177 |
| CG5516 | DRSC21753 | 0.413 |
| CG12826 | DRSC06175 | -3.09 |
| CG7910 | DRSC16341 | 1.29 |
| IFT54 (Intraflagellar transport 54) | DRSC15469 | -0.397 |
| CG12795 | DRSC00354 | 0.14 |
| Teh2 (tipE homolog 2) | DRSC08458 | 1.12 |
| Or42a (Odorant receptor 42a) | DRSC04912 | 0.00966 |
| CG13223 | DRSC06344 | 1.4 |
| CG5569 | DRSC04514 | -0.189 |
| Ns4 (Nucleostemin 4) | DRSC03199 | -1.08 |
| can (cannonball) | DRSC10664 | 0.305 |
| Acox57D-p (acyl-Coenzyme A oxidase at 57D proximal) | DRSC04560 | -0.435 |
| Sodh2 (Sorbitol dehydrogenase 2) | DRSC16865 | -0.111 |
| fdl (fused lobes) | DRSC07279 | -0.376 |
| Moe (Moesin) | DRSC18684 | 1.44 |
| Art7 (Arginine methyltransferase 7) | DRSC04588 | -0.806 |
| kra (krasavietz) | DRSC12320 | -0.111 |
| CR42532 (pseudo) | DRSC06713 | 0.301 |
| Vajk4 | DRSC06589 | -0.758 |
| Vajk4 | DRSC07003 | -0.514 |
| CG10669 | DRSC14261 | -0.865 |
| CG9130 + CG9133 | DRSC08624 | -0.448 |
| CG9130 + CG9133 | DRSC08625 | -0.191 |
| CG9130 + CG9133 | DRSC22010 | 0.833 |
| Mf (Myofilin) | DRSC16120 | 0.0397 |
| Tcs6 + PIG-P | DRSC13742 | 0.999 |
| Tcs6 + PIG-P | DRSC14893 | -1.1 |
| Cyp28c1 (Cytochrome P450 28c1) | DRSC20236 | 0.448 |
| CG18327 | DRSC06722 | 1.14 |
| Iris | DRSC00663 | -0.509 |
| gny (garnysstan) | DRSC02810 | -2.28 |
| orb2 | DRSC10540 | 1.08 |
| orb2 | DRSC10541 | 1.71 |
| orb2 | DRSC10542 | -0.0202 |
| CG15194 (retired record) | DRSC19642 | 0.048 |
| CG15194 (retired record) | DRSC19777 | -2.07 |
| Gr28b (Gustatory receptor 28b) | DRSC02291 | 0.69 |
| Gr28b (Gustatory receptor 28b) | DRSC02292 | 0.508 |
| CG12158 | DRSC22933 | 0.104 |
| Coq7 + shf | DRSC18448 | -1.8 |
| CNT1 + CG13742 | DRSC06413 | 0.234 |
| CG10979 | DRSC12153 | 0.183 |
| fwe (flower) | DRSC10594 | 1.48 |
| fwe (flower) | DRSC21400 | 0.595 |
| CG4942 | DRSC10462 | -2.8 |
| CG3652 | DRSC00624 | -0.534 |
| SMC5 (Structural maintenance of chromosomes 5) | DRSC11849 | 1.67 |
| GstE2 (Glutathione S transferase E2) | DRSC06672 | 0.773 |
| CG3819 | DRSC10378 | 0.108 |
| Atg18a (Autophagy-related 18a) | DRSC10943 | 0.238 |
| Pef (Peflin) | DRSC06695 | -1.14 |
| Nubp2 (NUBP iron-sulfur cluster assembly factor 2) | DRSC11758 | -1.14 |
| wbl (windbeutel) | DRSC07718 | -0.106 |
| Adgf-A (Adenosine deaminase-related growth factor A) | DRSC10566 | 0.71 |
| Nap1 (Nucleosome assembly protein 1) | DRSC04626 | -0.197 |
| ssp7 (short spindle 7) | DRSC18878 | -1.99 |
| CG42512 + CG32573 | DRSC19532 | 0.336 |
| CG42512 + CG32573 | DRSC19906 | -0.958 |
| CG42512 + CG32573 | DRSC22782 | 0.101 |
| chinmo (Chronologically inappropriate morphogenesis) | DRSC00292 | 2.46 |
| chinmo (Chronologically inappropriate morphogenesis) | DRSC00485 | 4.77 |
| chinmo (Chronologically inappropriate morphogenesis) | DRSC00509 | 4.67 |
| Sdhaf3 (Succinate dehydrogenase assembly factor 3) | DRSC15020 | -0.0472 |
| CG43333 | DRSC01917 | -0.664 |
| CG43333 | DRSC23265 | 1.52 |
| CG33155 + mRpL53 | DRSC05461 | 1 |
| CG4880 | DRSC19923 | 1.94 |
| Chmp1 (Charged multivesicular body protein 1) | DRSC10401 | 2.09 |
| CG1943 | DRSC12576 | -0.882 |
| CG12539 | DRSC19470 | -1.84 |
| bb8 (big bubble 8) | DRSC15578 | 0.134 |
| CG11703 | DRSC14356 | -0.907 |
| CG6696 | DRSC20004 | 1.24 |
| SerRS-m (Seryl-tRNA synthetase, mitochondrial) | DRSC14096 | -0.689 |
| Sil1 (Sil1 nucleotide exchange factor) | DRSC14242 | -1.29 |
| Snx1 (Sorting nexin 1) | DRSC00531 | -1.65 |
| CG13045 | DRSC09926 | -0.477 |
| CG42527 (retired record) + Hr4 | DRSC18495 | 1.37 |
| CG42527 (retired record) + Hr4 | DRSC22269 | -0.333 |
| CG42527 (retired record) + Hr4 | DRSC22677 | -3.29 |
| CG42527 (retired record) + Hr4 | DRSC23080 | -1.07 |
| CG42527 (retired record) + Hr4 | DRSC23251 | -0.676 |
| Cyp6a22 (Cytochrome P450 6a22) | DRSC07382 | -0.347 |
| CR18275 + CG13373 | DRSC17900 | -0.317 |
| CG5399 | DRSC15791 | 1.01 |
| scny (scrawny) | DRSC10509 | 1.13 |
| scny (scrawny) | DRSC10510 | 0.653 |
| scny (scrawny) | DRSC23229 | 0.558 |
| CR10032 (pseudo) | DRSC12499 | 1.45 |
| Manf (Mesencephalic astrocyte-derived neurotrophic factor) | DRSC14091 | 1.52 |
| arx (asterix) | DRSC10386 | 0.17 |
| 5-HT7 (5-hydroxytryptamine (serotonin) receptor 7) | DRSC12635 | -0.202 |
